This test can be described thus: qHTS Assay for Modulators of Lamin A Splicing. The following applies: HeLa LMNA splicing GFP/RFP minigene ratio, 48 h. The method, boiled down: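 S3 HeLa stable clones carrying a lamin A-EGFP splicing minigene plus DsRed2 were seeded at 600 cells/well in Opti-MEM with 2% FBS, pin-dosed and incubated 48 h at 37°C. Acumen cytometry (488 nm) gave the GFP/RFP total-intensity ratio.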
For orientation: In qHTS, concentration-response curves come from the screen itself.

The mark [1] stands for this setting: measured here: GFP splicing reporter channel.
Setting [2] is: measured here: RFP viability control channel.

Values joined by “and” are separate entries in the source; they are usually repeats but may differ in a detail not shown here. Equal values may be shown once. Some of the results follow. These are further read-outs of the screen, such as a control signal, another cell line or another target. No call is given for them. Most of these compounds were active or inconclusive in the main read-out, so they are no random draw. Words in brackets tell the shape of the fitted curve; partial curves, single points and poor fits give uncertain potencies.

As usually defined, the AC50 is the concentration at which the activity in the assay is half-maximal. Take `Cc1cc(C(=O)COC(=O)CNC(=O)c2ccccc2)c(C)n1CC1CCCO1` (stereo not given): the AC50 under setting [1] is 0.0562 µM [falling, full curve, poor fit].
Take `O=C(N/N=C/c1ccc(N2CCOCC2)s1)c1ccc(NS(=O)(=O)c2cccs2)cc1`: the AC50 by setting is: under setting [1], 8.91 µM [falling, partial curve]; under setting [2], 20 µM [falling, partial curve, poor fit].
On to `COc1ccc(OC)c(-c2nc(CN3CCCCC3c3cccnc3)c(C)o2)c1` (stereo not given), for which, under setting [1], the AC50 is 3.98 µM [rising, single point].
Take `COc1ccc2oc(=O)c(-c3nc4ccc(C)cc4[nH]3)cc2c1`: the AC50 under setting [1] was 1.58 µM [rising, single point].
Same read-out and setting: the same measure for `COc1ccc(N(C2CSC2)S(=O)(=O)c2ccccc2)cc1`: 3.16 µM [rising, partial curve].
Regarding `CCOC(=O)c1cc(-c2ccc(F)cc2)n(CCC(=O)NCc2ccc(C)cc2)c1C`, the AC50 under setting [2] was 0.00501 µM [falling, full curve, poor fit].
In the case of `Cc1ccc(-n2ncc(C(=O)N3CCN(c4cccc(C)c4C)CC3)c2C2CCNCC2)c(C)c1`, the AC50 reads like this: under setting [1], 0.00631 µM [falling, full curve, poor fit]; under setting [2], 0.00501 µM [falling, full curve, poor fit].
`CC(C)c1nc(SCC(=O)Nc2nc3c(s2)CCCC3)c2ccccc2n1`: the AC50 under setting [1] is 35.5 µM [falling, single point].
On to `COc1cc(NC(=O)c2cccc(C)c2)c(OC)cc1NC(=O)CN1CCOCC1`, for which the AC50 under setting [1] was 0.708 µM [rising, single point] and the AC50 under setting [2] is 0.631 µM [rising, single point].
For `CCOC(=O)c1cccc(NC(=O)/C=C/c2ccc([N+](=O)[O-])cc2)c1`, the half-maximal activity concentration (AC50) is, setting by setting: under setting [1], 10 µM [rising, partial curve]; under setting [2], 17.8 µM [rising, partial curve].
In the case of `O=C(N/N=C/c1ccc([N+](=O)[O-])cc1)c1c[nH]c2ccccc12`, the AC50 under setting [2] is 17.8 µM [rising, single point].
The same measure, in the same setting: with `CCOC(=O)c1cc(NC(=O)c2ccco2)ccc1N1CCOCC1` the figure was 0.282 µM [falling, full curve].
For the compound `O=C(CCCCC(=O)NC1CCCC1)NC1CCCC1`, under setting [1], the AC50 is 31.6 µM [rising, partial curve].
Take `CN(C)C(=O)c1ccc(-c2nc(Nc3ccccc3)c3ccccc3n2)cc1`: the AC50 under setting [1] was 25.1 µM [falling, single point] and the AC50 under setting [2] was 25.1 µM [falling, single point].
Regarding `C=CCNC(=O)C1CCN(c2cc(C)nc(-c3ccccc3)n2)CC1`, the AC50 was 0.141 µM [falling, full curve] under setting [1] and 0.282 µM [falling, full curve, poor fit] under setting [2].
In the case of `COc1ccc(N(CC(=O)Nc2cc(C)ccc2OC)S(=O)(=O)c2c(C)noc2C)cc1`, the AC50 runs as follows: under setting [1], 12.6 µM [rising, single point]; under setting [2], 31.6 µM [rising, single point].
For `Cn1c(SCc2n[nH]c(=S)o2)nnc1-c1ccccc1`, the AC50 under setting [2] is 0.0562 µM [rising, full curve, poor fit].
Consider `CC(=O)O/N=C(/c1nonc1N)N1CCN(c2ccc([N+](=O)[O-])cc2Cl)CC1`, for which, under setting [2], the AC50 was 17.8 µM [rising, single point].
For the compound `COc1cccc(NS(=O)(=O)c2ccc3[nH]cc(C(=O)NCCc4ccc(C)cc4)c(=O)c3c2)c1`, under setting [1], the AC50 is 4.47 µM [falling, partial curve].
On to `C=CC[n+]1c(-c2ccc(OC)cc2)csc1NNC(=O)Nc1ccccc1`, for which the AC50 under setting [2] was 8.91 µM [rising, partial curve].
With `COc1ccccc1C(=O)NCCc1csc(-c2ccc(C(F)(F)F)cc2)n1`, under setting [1], the AC50 was 35.5 µM [falling, single point].
As for `CC(=O)OC1COC(n2ccc3ccccc32)C(OC(C)=O)C1OC(C)=O` (stereo not given), the AC50 under setting [2] is 0.501 µM [rising, full curve, poor fit].
As for `O=C(CN1CCCCC1)NCC1(c2ccccc2)CCCC1`, the AC50 is 0.1 µM [rising, full curve, poor fit] under setting [1] and 0.0891 µM [rising, full curve, poor fit] under setting [2].
With `COC(=O)/C(=C1\Oc2ccc(C(C)(C)C)cc2S1)C(F)(F)F`, the AC50 under setting [1] was 0.1 µM [rising, full curve, poor fit] and the AC50 under setting [2] is 0.0891 µM [rising, full curve, poor fit].
`CC[C@H](C)C(=O)O[C@H]1C[C@@H](C)C=C2C=C[C@H](C)[C@H](CC[C@@H]3C[C@@H](O)CC(=O)O3)[C@H]21`: the AC50 under setting [1] was 11.2 µM [rising, partial curve, poor fit] and 5.62 µM [falling, partial curve, poor fit]; the AC50 under setting [2] was 11.2 µM [rising, partial curve, poor fit] and 5.62 µM [falling, partial curve, poor fit].
Consider `O=C(NCc1ccccc1Cl)C1CCC(CNc2nc(=S)[nH]c3ccccc23)CC1` (stereo not given), for which the AC50 under setting [2] is 0.501 µM [falling, full curve, poor fit].
Consider `CCn1ncc(/C=N\NC(=O)Cc2ccc([N+](=O)[O-])cc2)c1C`, for which, under setting [1], the AC50 was 17.8 µM [rising, single point].
On the same count and under the same terms, with `CC(C)C(=O)NC(=S)N1CCc2ccccc21` the figure was 12.6 µM [rising, single point].
In the case of `Clc1ccc(OCCn2c(-c3ccco3)nc3ccccc32)cc1`, the AC50 was 20 µM [rising, single point] under setting [1] and 31.6 µM [rising, single point] under setting [2].
Regarding `Cc1cccc(Cn2nnc3c2C(=O)c2ccccc2C3=O)c1`, under setting [1], the AC50 was 22.4 µM [falling, single point].
Take `Cc1ccc2c(CN3CCN(S(=O)(=O)/C=C/c4ccccc4)CC3)cc(=O)oc2c1`: under setting [2], the AC50 is 0.631 µM [rising, partial curve].
For `O=C(COC(=O)CCC1CCCC1)Nc1ccccc1OC(F)F`, the AC50 under setting [2] was 17.8 µM [rising, single point].
For the compound `CCN1CCCC1CN(Cc1cc2cc(C)cc(C)c2[nH]c1=O)C(=O)Nc1ccccc1OC` (stereo not given), the AC50 is 11.2 µM [rising, partial curve, poor fit] under setting [1] and 11.2 µM [rising, partial curve, poor fit] under setting [2].

Values taken from PubChem BioAssay AID1487 (National Center for Advancing Translational Sciences (NCATS), 2009).
